Source: article PMC5347692, “Serpin E2 promotes breast cancer metastasis by remodeling the tumor matrix and polarizing tumor associated macrophages” (Oncotarget, 2016)
These are yes or no findings as the source states them, for the method shown. Some results given as binding are weak or reduced against the parent protein; the word gives no strength.

Protein sequences, listed by entry. Tags and fused reporters are not part of them. Residues count along the entry.
UniProt P00750, residues 36-562: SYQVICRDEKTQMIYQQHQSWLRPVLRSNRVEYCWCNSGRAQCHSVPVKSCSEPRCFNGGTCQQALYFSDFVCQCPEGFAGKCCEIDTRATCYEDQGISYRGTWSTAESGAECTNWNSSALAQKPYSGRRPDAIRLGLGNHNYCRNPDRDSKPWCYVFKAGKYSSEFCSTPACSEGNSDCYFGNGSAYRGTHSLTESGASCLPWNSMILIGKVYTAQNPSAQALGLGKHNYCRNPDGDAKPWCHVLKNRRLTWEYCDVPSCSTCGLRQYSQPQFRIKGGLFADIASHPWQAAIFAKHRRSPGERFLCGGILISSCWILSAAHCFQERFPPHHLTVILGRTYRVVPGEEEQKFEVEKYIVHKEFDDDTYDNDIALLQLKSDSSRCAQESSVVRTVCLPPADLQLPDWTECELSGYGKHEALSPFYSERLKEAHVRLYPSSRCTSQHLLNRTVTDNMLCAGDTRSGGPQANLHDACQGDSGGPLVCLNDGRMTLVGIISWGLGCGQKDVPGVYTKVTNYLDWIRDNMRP

Target: recombinant tPA (in the rodent serpinE2/tPA complex) (UniProt P00750)
Experiment: SDS-stable complex seen by western blot; recombinant serpinE2 and tPA bound to each other beforehand, complex immunoprecipitated with Ab11 and Protein G, western blot with a serpinE2-specific antibody; complex band above uncomplexed serpinE2; both purified

- binding: binds
B1: rodent recombinant serpinE2 (protein, UniProt P07092 20-397)
chain: SQLNSLSLEELGSDTGIQVFNQIIKSQPHENVVISPHGIASILGMLQLGADGRTKKQLSTVMRYNVNGVGKVLKKINKAIVSKKNKDIVTVANAVFVRNGFKVEVPFAARNKEVFQCEVQSVNFQDPASACDAINFWVKNETRGMIDNLLSPNLIDSALTKLVLVNAVYFKGLWKSRFQPENTKKRTFVAGDGKSYQVPMLAQLSVFRSGSTKTPNGLWYNFIELPYHGESISMLIALPTESSTPLSAIIPHISTKTINSWMNTMVPKRMQLVLPKFTALAQTDLKEPLKALGITEMFEPSKANFAKITRSESLHVSHILQKAKIEVSEDGTKAAVVTTAILIARSSPPWFIVDRPFLFCIRHNPTGAILFLGQVNKP
